Several values for one entry are separate records, joined by “and”; a condition that tells them apart may be missing. Equal entries are not always repeated. Inconclusive means that the source gave no clear call. Such entries were picked first, then a sample of the others. For some assays here: Potencies of inconclusive entries are doubtful fits and often do not repeat. Some structures have more than one record in an assay (separate samples or runs), and their calls can disagree. Activity calls are given as the source filed them. How the source made its calls: active means hit-call score of the fitted dose curve at least 0.9, where 1 is the maximum; inconclusive means response in the unintended direction; inactive means score below 0.9.
What was measured:
[1] = biological target: Bile acid receptor (Homo sapiens) (UniProt Q96RI1); test: OT_FXR_FXRSRC1_0480: Odyssey Thera (OT) 8-hour HEK293T Protein-Complementation Assay for Farnesoid X receptor/SRC-1 Co-activator (AID 2283383)
Outline: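 PCA, HEK293T, 8 h compound exposure; FXR–SRC-1 binding reconstitutes split reporter; fluorescence intensity; positive-direction fit vs DMSO.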

By UniProt entry, the sequences of proteins in these tests, tags left out. Where a name states a change or a piece, a line headed by the entry shows the natural chain unless it says otherwise.
UniProt Q96RI1: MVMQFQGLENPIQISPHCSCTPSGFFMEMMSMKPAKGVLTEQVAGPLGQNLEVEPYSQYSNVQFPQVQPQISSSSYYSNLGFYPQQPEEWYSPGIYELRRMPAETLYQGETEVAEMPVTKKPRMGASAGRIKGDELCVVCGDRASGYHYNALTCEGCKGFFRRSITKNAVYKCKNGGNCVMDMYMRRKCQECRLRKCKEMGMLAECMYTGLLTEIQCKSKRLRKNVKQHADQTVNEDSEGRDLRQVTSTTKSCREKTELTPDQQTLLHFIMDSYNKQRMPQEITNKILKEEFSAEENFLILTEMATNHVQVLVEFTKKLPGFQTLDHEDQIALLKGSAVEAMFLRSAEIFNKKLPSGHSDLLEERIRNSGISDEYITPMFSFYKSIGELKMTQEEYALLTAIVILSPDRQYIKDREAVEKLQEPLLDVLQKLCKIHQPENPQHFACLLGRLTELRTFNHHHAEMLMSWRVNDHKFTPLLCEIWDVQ
UniProt P19793: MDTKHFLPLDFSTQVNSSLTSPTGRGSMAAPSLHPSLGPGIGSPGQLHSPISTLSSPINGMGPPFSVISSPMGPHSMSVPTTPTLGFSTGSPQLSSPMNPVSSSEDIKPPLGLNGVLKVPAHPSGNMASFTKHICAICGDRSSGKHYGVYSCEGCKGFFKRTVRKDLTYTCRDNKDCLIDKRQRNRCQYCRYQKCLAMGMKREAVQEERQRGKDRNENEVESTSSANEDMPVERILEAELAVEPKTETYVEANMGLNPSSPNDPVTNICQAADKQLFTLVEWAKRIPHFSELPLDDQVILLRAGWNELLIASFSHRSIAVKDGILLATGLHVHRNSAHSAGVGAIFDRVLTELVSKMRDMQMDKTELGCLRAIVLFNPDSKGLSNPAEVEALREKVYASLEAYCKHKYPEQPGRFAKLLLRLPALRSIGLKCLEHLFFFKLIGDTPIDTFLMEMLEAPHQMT
UniProt P04637, whole entry, looked up: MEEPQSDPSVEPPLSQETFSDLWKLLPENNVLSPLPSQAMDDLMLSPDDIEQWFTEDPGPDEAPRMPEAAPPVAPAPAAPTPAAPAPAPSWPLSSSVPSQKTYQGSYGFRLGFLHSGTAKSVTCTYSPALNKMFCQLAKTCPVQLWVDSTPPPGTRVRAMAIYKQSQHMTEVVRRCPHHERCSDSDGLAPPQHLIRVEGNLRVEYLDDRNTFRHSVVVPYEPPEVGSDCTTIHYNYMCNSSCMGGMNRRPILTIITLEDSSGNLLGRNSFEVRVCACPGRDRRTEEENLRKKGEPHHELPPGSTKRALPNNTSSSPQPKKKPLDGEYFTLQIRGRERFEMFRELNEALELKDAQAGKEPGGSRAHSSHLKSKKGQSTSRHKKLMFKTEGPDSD
UniProt P37231: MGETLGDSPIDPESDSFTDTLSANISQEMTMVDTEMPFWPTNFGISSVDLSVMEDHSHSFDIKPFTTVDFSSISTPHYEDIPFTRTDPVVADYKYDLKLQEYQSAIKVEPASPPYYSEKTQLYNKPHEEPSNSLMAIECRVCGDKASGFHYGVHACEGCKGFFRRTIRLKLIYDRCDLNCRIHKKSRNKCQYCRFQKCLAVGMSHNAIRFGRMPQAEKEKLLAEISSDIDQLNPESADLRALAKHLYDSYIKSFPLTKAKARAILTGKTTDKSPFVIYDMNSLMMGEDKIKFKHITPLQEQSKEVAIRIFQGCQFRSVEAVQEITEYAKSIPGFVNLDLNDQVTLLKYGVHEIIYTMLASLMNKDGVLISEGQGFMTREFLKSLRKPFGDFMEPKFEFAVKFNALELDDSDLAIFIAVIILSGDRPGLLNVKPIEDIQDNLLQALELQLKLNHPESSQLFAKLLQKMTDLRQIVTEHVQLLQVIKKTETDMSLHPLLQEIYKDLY

[2] = biological target: Bile acid receptor (Homo sapiens) (UniProt Q96RI1); test: OT_FXR_FXRSRC1_1440: Odyssey Thera (OT) 24-hour HEK293T Protein-Complementation Assay for Farnesoid X receptor/SRC-1 Co-activator (AID 2283384)
Outline: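 Measures ligand-driven FXR–SRC-1 co-activator recruitment in HEK293T via fragment complementation, fluorescence intensity at 24 h. DMSO served as negative control and baseline for gain-of-signal fitting.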

[3] = biological target: Retinoic acid receptor RXR-alpha (Homo sapiens) (UniProt P19793); test: OT_NURR1_NURR1RXRa_1440: Odyssey Thera (OT) 24-hour HEK293T Protein Complementation Assay for Nurr1/retinoid X receptor (RXR) (AID 2283386)
Outline: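 Steps: fragment-tagged Nurr1 and RXRα expressed in HEK293T; compounds added; after 24 h, complemented reporter quantified by fluorescence intensity; signal increase over DMSO fitted as the single endpoint.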

[4] = TOX21_p53_BLA_p2_viability: Viability Assessment in the Tox21 HCT-116 p53 Agonism Beta-lactamase Assay, Phase 2 (AID 2283591);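 further: actives lower the ATP signal meaning cytotoxicity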
Outline: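 HCT116 p53-bla cells, 4000/well, dosed after 5 h plating (217-fold dilution of DMSO stocks) and incubated 16 h at 37C. Viability taken as cellular ATP by CellTiter-Glo luminescence after 30 min RT; signal loss marks cytotoxicity.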

[5] = biological target: Cellular tumor antigen p53 (Homo sapiens) (UniProt P04637); test: TOX21_p53_BLA_p2_ratio: Tox21 HCT-116 p53 Agonism Beta-lactamase Assay, Ratio, Phase 2 (AID 2283592)
Outline: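 First, HCT116 reporter cells settle for 5 h at 37C. Next, DMSO compound solutions are pinned in (217-fold dilution) and left 16 h. Finally, CCF4-AM substrate is loaded 2 h at room temperature and the 460/530 nm ratio read.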

[6] = TOX21_p53_BLA_p3_viability: Viability Assessment in the Tox21 HCT-116 p53 Agonism Beta-lactamase Assay, Phase 3 (AID 2283593);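 further: cells exposed to compound for 16 h before reading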
Outline: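 HCT116 cells, 4000/well, dosed 5 h after plating by pin transfer (217-fold dilution from DMSO stock) and incubated 16 h at 37C, 5% CO2. Viability read as ATP luminescence with CellTiter-Glo after 30 min at room temperature.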

[7] = biological target: Cellular tumor antigen p53 (Homo sapiens) (UniProt P04637); test: TOX21_p53_BLA_p3_ratio: Tox21 HCT-116 p53 Agonism Beta-lactamase Assay, Ratio, Phase 3 (AID 2283596)
Outline: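 Cells were seeded at 4000/well, rested 5 h at 37C, then dosed with DMSO compound solutions (217-fold dilution) for 16 h. CCF4-AM substrate was loaded for 2 h at room temperature, and the 460/530 nm emission ratio was fitted for gain of signal versus DMSO.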

[8] = TOX21_p53_BLA_p4_viability: Viability Assessment in the Tox21 HCT-116 p53 Agonism Beta-lactamase Assay, Phase 4 (AID 2283597);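 further: hits lower the luminescence signal meaning cytotoxicity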
Outline: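 4000 HCT116 cells per well; 5 h attachment; compounds from DMSO, 217-fold dilution; 16 h at 37C. Then CCF4-AM, 2 h RT, followed by CellTiter-Glo, 30 min RT, luminescence. Decrease = cytotoxicity.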

[9] = biological target: Retinoic acid receptor RXR-alpha (Homo sapiens) (UniProt P19793); test: OT_NURR1_NURR1RXRa_0480: Odyssey Thera (OT) 8-hour HEK293T Protein Complementation Assay for Nurr1/retinoid X receptor (RXR) (AID 2283385)
Outline: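 Interaction of bait and prey reconstitutes a functional reporter, whose fluorescence was measured in HEK293T cells dosed with compound for 8 hours. Signal gain relative to DMSO defined the single endpoint.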

[10] = biological target: Cellular tumor antigen p53 (Homo sapiens) (UniProt P04637); test: TOX21_p53_BLA_p5_ratio: Tox21 HCT-116 p53 Agonism Beta-lactamase Assay, Ratio, Phase 5 (AID 2283599)
Outline: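 HCT-116 p53-bla cells (4000/well) plated 5 h, dosed with compound (217-fold DMSO dilution) for 16 h at 37 C; CCF4-AM substrate 2 h at room temperature. Activity is the 460/530 nm emission ratio (405 nm excitation), fitted in gain-of-signal direction versus DMSO.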

[11] = biological target: Cellular tumor antigen p53 (Homo sapiens) (UniProt P04637); test: TOX21_p53_BLA_p4_ratio: Tox21 HCT-116 p53 Agonism Beta-lactamase Assay, Ratio, Phase 4 (AID 2283601)
Outline: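 HCT-116 p53 beta-lactamase reporter cells (4000/well) preincubated 5 h, then compound (217-fold dilution of DMSO stock) for 16 h at 37C. CCF4-AM substrate added 2 h at room temperature; 460/530 nm emission ratio fitted upward versus DMSO.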

[12] = biological target: Peroxisome proliferator-activated receptor gamma (Homo sapiens) (UniProt P37231); test: OT_PPARg_PPARgSRC1_0480: Odyssey Thera (OT) 8-hour Protein-Complementation Assay for Peroxisome Proliferator-activated Receptor Gamma / SRC-1 Co-activator (AID 2283387);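 further: nuclear to cytoplasmic split Venus YFP fluorescence ratio reporting PPARg SRC-1 interaction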
Outline: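 Protein-fragment complementation in HEK293T: Venus YFP halves (residues 1-158, 159-239, mutated to IFP1/IFP2) fused to PPARg/SRC-1. 8 h exposure; N/C ratio at 488 nm; DMSO negative control.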

[13] = TOX21_p53_BLA_p5_viability: Viability Assessment in the Tox21 HCT-116 p53 Agonism Beta-lactamase Assay, Phase 5 (AID 2283600)
Outline: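 Decreased CellTiter-Glo luminescence denotes lost viability. Exposure: 16 h at 37C, 5% CO2, with compounds from DMSO stocks diluted 217-fold in wells of 4000 cells.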

[14] = ATG_XTT_Cytotoxicity: Cytotoxicity Assessment in the Attagene TRANS-FACTORIAL HepG2 Assay (AID 2283584);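 on AC50: XTT signal for cell number as viability in transfected HepG2 cells; cells exposed to compound for 24 h before reading; active means loss of viability signal versus DMSO baseline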
Outline: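 HepG2 cells transiently transfected with GAL4-UAS multiple reporter units, dosed 24 h; cytotoxicity read by XTT as loss of signal versus DMSO baseline.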

Measured: AC50

O=S1(=O)OCC2C(CO1)C1(Cl)C(Cl)=C(Cl)C2(Cl)C1(Cl)Cl (stereo unspecified)
inactive: [4] | [5] | [6] | [7] | [8]
active: [1] 49.3 µM | [2] 50 µM
inconclusive: [3] 15.8 µM

Oc1c(Cl)c(Cl)c(Cl)c(Cl)c1Cl
inconclusive: [1] 8.6 µM | [2] 25.5 µM | [9] 5.06 µM
active: [5] 8.58 µM and 1.98 µM | [7] 5.71 µM and 1.86 µM | [10] 8.02 µM | [11] 11.1 µM and 2.43 µM
inactive: [3]

Cn1sc(Cl)cc1=O
inactive: [1] | [9] | [10] | [13] | [11]
inconclusive: [9] 50 µM | [12] 85.9 µM | [4] 23 µM | [8] 8.44 µM and 23 µM | [10] 46.1 µM
active: [6] 29.8 µM

c1cc[c]([Hg][c]2ccccc2)cc1
active: [1] 29 µM | [9] 29.7 µM | [3] 63.4 µM | [5] 15.2 µM | [8] 79.3 µM
inconclusive: [6] 46.1 µM | [13] 6.23 µM

CCN(CC)c1ccccc1
inconclusive: [1] 50 µM | [9] 50 µM | [8] 71.6 µM | [11] 46.1 µM
inactive: [14] | [4] | [11]

CCC1(c2ccc(N)cc2)CCC(=O)NC1=O (stereo unspecified)
inconclusive: [1] 50 µM | [9] 50 µM | [14] 100 µM
inactive: [3]

COP(N)(=O)SC (stereo unspecified)
inactive: [1] | [9] | [3] | [6] | [7] | [13]
inconclusive: [4] 2.02 µM | [5] 45.8 µM and 45.5 µM | [8] 45.8 µM and 1.73 µM | [13] 45.5 µM | [11] 45.8 µM and 45.5 µM

— PubChem BioAssay (EPA / NIEHS)
